Results are given in words; binding and its absence hold for the method and conditions named. Binding seen in cells or lysates may run through a third protein. Some binding calls cover weakened binding; strength is not graded here.
Target: Toll-like receptor 4 (mouse (endogenous in BV-2)) (UniProt Q9QUK6)
Test: co-IP; BV-2 cells treated with LPS (200 ng/mL) and indicated concentrations of ACT001 for 1 h; lysis in 25 mM Tris pH 8.0, 150 mM KCl, 5 mM EDTA, 0.5% NP-40; anti-TLR4 antibody overnight at 4 °C, magnetic beads; MD2, TLR4 and MyD88 detected by immunoblotting

Sequences of proteins named here, by UniProt entry; tags and fusion partners are left off. Residues count along the entry.
UniProt Q9QUK6, residues 26-835: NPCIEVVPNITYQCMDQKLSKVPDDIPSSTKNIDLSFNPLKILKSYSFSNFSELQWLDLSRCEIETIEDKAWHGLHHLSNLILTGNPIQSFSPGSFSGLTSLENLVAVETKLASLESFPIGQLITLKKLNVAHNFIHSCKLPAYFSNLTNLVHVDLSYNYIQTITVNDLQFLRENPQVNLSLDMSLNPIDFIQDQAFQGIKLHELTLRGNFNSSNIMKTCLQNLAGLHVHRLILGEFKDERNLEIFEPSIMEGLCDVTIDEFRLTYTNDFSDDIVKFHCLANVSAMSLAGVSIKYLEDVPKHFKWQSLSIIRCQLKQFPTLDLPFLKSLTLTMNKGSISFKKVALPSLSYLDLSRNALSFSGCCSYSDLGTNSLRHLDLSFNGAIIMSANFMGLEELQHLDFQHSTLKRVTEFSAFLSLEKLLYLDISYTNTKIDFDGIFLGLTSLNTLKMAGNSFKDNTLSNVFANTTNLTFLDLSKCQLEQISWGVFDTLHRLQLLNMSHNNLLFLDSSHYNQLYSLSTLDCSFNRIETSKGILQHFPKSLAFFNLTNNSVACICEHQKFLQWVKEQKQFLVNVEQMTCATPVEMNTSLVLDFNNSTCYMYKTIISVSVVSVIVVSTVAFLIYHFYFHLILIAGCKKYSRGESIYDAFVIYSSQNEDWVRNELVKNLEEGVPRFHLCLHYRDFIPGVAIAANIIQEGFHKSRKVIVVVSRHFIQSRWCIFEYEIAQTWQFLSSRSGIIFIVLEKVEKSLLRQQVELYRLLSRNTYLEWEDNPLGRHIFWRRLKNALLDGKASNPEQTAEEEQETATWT
UniProt P22366: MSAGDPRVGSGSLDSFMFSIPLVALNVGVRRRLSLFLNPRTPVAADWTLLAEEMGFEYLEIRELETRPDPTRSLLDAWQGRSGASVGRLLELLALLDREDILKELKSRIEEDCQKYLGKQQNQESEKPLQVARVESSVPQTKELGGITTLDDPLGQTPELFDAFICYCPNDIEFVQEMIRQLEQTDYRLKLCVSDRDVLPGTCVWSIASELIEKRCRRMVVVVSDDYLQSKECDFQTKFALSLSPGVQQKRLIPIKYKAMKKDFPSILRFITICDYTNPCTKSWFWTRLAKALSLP

binding	Molecule
binds	myeloid differentiation primary response protein 88 (from UniProt P22366 1-296)
binds	myeloid differentiation 2 (protein, UniProt Q9JHF9 19-160) EKQQWFCNSSDAIISYSYCDHLKFPISISSEPCIRLRGTNGFVHVEFIPRGNLKYLYFNLFISVNSIELPKRKEVLCHGHDDDYSFCRALKGETVNTSIPFSFEGILFPKGHYRCVAEAIAGDTEEKLFCLNFTIIHRRDVN
